Broadly, the AC50 is the concentration giving half of the maximal activity seen.

Some of the results follow. Shown are side measurements of this screen, not its main read-out; they come without a call. Compounds called inactive in the main read-out are mostly missing here. Potencies come from curve fits of mixed quality, noted in brackets.

The values below come from PubChem BioAssay AID493014 (National Center for Advancing Translational Sciences (NCATS), 2011).

The experiment can be described thus: qHTS Assay to Find Inhibitors of Chronic Active B-Cell Receptor Signaling. To be noted: ABC-DLBCL IkBa-CBG/CBR reporter, luminescence ratio (green luciferase fused to IkBa over red control in TMD8 lymphoma cells), 4 h. The essentials: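 TMD8 ABC-DLBCL cells carrying doxycycline-inducible green luciferase fused to IkappaBalpha plus unfused red luciferase were exposed to compounds (up to 46 uM) for 4 hrs at 37C. Activity came from the overlap-corrected green/red luminescence ratio.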
Background: In qHTS, concentration-response curves come from the screen itself.

[1] abbreviates: measured here: CBR red luminescence, cell number.
Where [2] appears, read: measured here: IkBa-CBG green luminescence.

As to `COC(=O)c1c(/N=C/NOCc2ccc(Cl)cc2)sc2c1CCN(c1ncc(C(F)(F)F)cc1Cl)C2`, the AC50 under setting [1] was 16.4 µM [rising, single point].
For `OC(COc1cccc2ccccc12)CN1CCN(c2cccc(Cl)c2)CC1` (configuration not stated), the AC50 under setting [1] is 35.5 µM [falling, partial curve, poor fit].
Consider `CC(C)CN1C(=O)c2ccc(C(=O)Nc3c[nH]c(=O)[nH]c3=O)cc2C1=O`, for which the AC50 under setting [1] was 11.2 µM [rising, single point].
For the molecule `CCN(c1c(C)n(C)n(-c2ccccc2)c1=O)S(C)(=O)=O`, the AC50 under setting [1] is 7.31 µM [rising, partial curve, poor fit].
Same read-out and setting: in the case of `CC(C)(C)OC(=O)N[C@@H](Cc1ccccc1)c1nnc(S(=O)(=O)Cc2cccc(F)c2)o1` it was 35.5 µM [falling, single point]; in that of `COc1ccc(NC(=O)CSc2nc(C)cc(C)n2)c([N+](=O)[O-])c1`, 0.708 µM [rising, full curve, poor fit].
On to `CCCc1nn(C)c(C(=O)Nc2ccc3ccccc3c2)c1Cl`, for which the AC50 under setting [1] is 1.3 µM [rising, full curve] and the AC50 under setting [2] was 29.1 µM [falling, single point].
Turning to `O=C(COc1ccc(Cl)cc1Br)NNC(=O)C(=O)N1CCCCC1`, the AC50 under setting [1] was 32.6 µM [rising, partial curve, poor fit].
Same read-out and setting: in the case of `Oc1ccc(Br)cc1-c1cc(-c2ccccc2Cl)[nH]n1` it was 3.55 µM [rising, full curve, poor fit].
Regarding `CCn1c(=S)[nH]c2cc(S(=O)(=O)N3CCOCC3)ccc21`, under setting [2], the AC50 is 11.6 µM [falling, partial curve].
For `OCCN1CCN(CC/C=C2/c3ccccc3Sc3ccc(Cl)cc32)CC1`, the AC50 under setting [1] was 10.3 µM [falling, single point].
Take `CC(OC(=O)CN1C(=O)c2ccccc2C1=O)C(=O)NC1(C#N)CCCCC1` (configuration not stated): the AC50 under setting [1] is 18.4 µM [rising, partial curve, poor fit].
On the same count and under the same terms, in the case of `Cc1cc(C)c(C)c(OCC(=O)O/N=C(\N)c2ccccn2)c1` it was 29.1 µM [falling, single point].
The same measure, in the same setting: in the case of `COc1ccc(-c2nn(-c3ccccc3)cc2/C=N/Nc2ccc(Cl)c(C(=O)O)c2)cc1OC` it was 28.2 µM [falling, single point]; in that of `CCN(CC)CCCNc1cc2n(c(=O)n1)CCc1cc(OC)c(OC)cc1-2`, 12.6 µM [rising, single point].
As to `CCOc1cc(CNCCc2c[nH]c3ccccc23)cc(Cl)c1OCC(N)=O`, the half-maximal activity concentration (AC50) was 35.5 µM [falling, single point] under setting [1] and 31.6 µM [rising, single point] under setting [2].
Regarding `O=C(NC1CCCCC1)c1sc(=S)n2c1[nH]c(=O)c1ccccc12`, the AC50 under setting [1] is 1.12 µM [rising, full curve, poor fit].
On the same count and under the same terms, in the case of `Nc1ccccc1-c1nnn(CC(=O)Nc2ccc3c(c2)OCCO3)n1` it was 20 µM [falling, single point].
The same measure, in the same setting: in the case of `C=CCNC(=S)NCC` it was 5.62 µM [falling, single point].
The same measure, in the same setting: in the case of `O=C(CN1CCN(C(=O)CNC(=O)c2ccc3c(c2)OCO3)CC1)Nc1cccc(F)c1` it was 14.6 µM [rising, partial curve]; in that of `COc1ccc(Br)cc1C(=O)Nc1cc(C)cc(C)c1`, 6.31 µM [falling, single point].
As for `CC1CCCCN1C(=O)C(Cc1ccccc1)N1C(=O)C2CCCCC2C1=O` (configuration not stated), the AC50 under setting [1] was 29.1 µM [rising, single point].
On the same count and under the same terms, in the case of `CCn1c(=N)n(CC(=O)c2ccc(OC)cc2)c2ccccc21` it was 2 µM [rising, partial curve]; in that of `O=C1COc2ccc(C(=O)COC(=O)/C=C/c3ccco3)cc2N1`, 6.51 µM [rising, partial curve, poor fit].
On the same count and under the same terms, in the case of `Cc1cccc(NC(=O)CCCCCN2C(=O)[C@@H]3Cc4ccccc4CN3C2=O)c1` it was 22.4 µM [falling, single point]; in that of `O=c1cc2oc3cc(O)c(O)cc3c(-c3ccccc3[N+](=O)[O-])c-2cc1O`, 14.1 µM [rising, partial curve].
Same read-out and setting: in the case of `COc1cc(C(=O)Nc2ccc(N(C)C)cc2)cc(OC)c1OC` it was 2.51 µM [rising, full curve, poor fit].
As to `CCn1c(COc2cccc(OC)c2)nnc1SCC(=O)Nc1cccc(OC)c1`, the AC50 under setting [1] was 29.1 µM [falling, single point].
Still for that read-out and setting: in the case of `CCc1c(C)c(C#N)c2nc3ccccc3n2c1NCc1ccco1` it was 23.1 µM [falling, partial curve, poor fit]; in that of `COc1ccc(-c2nnc(NC(=O)c3cc(Cl)ccc3Cl)o2)cc1`, 1.84 µM [falling, partial curve]; in that of `Fc1ccccc1CNc1ccc(Cl)cc1`, 3.98 µM [rising, full curve].
The same measure, in the same setting: in the case of `COC(=O)c1ccc(-c2nc3cc(Cl)c(N)cc3s2)cc1` it was 0.326 µM [falling, full curve, poor fit]; in that of `O=C(Nc1ccc(CN2CCOCC2)cc1)c1ccc(-c2cccc(Cl)c2)o1`, 25.1 µM [falling, single point]; in that of `CCOc1ccc(-c2cc(CCCC(=O)NCc3cccnc3)no2)cc1`, 3.26 µM [falling, partial curve].
As for `O=C(NC(=S)Nc1ccc(Br)cc1)C1CCCCC1`, the AC50 under setting [1] was 0.708 µM [rising, full curve, poor fit].
The same measure, in the same setting: in the case of `CCCCN(C(=O)c1ccc(NC2CC2)c([N+](=O)[O-])c1)c1c(N)n(CCCC)c(=O)[nH]c1=O` it was 32.6 µM [rising, partial curve, poor fit]; in that of `Cc1ccc2sc(N(CCCN(C)C)C(=O)c3ccc(S(=O)(=O)N(C)Cc4ccccc4)cc3)nc2c1C`, 29.1 µM [falling, single point]; in that of `Cn1nc(C(=O)Nc2cccc(S(N)(=O)=O)c2)c2ccccc2c1=O`, 10 µM [rising, partial curve, poor fit].
Same read-out and setting: in the case of `COC(=O)c1ccc2c(c1)N(C)S(=O)(=O)c1cnc(SCC(=O)C(C)(C)C)nc1-2` it was 0.708 µM [rising, full curve, poor fit]; in that of `CC(C)(C)OC(=O)N1CC(O)CC1C(=O)OCC(=O)c1ccc(Cl)cc1` (configuration not stated), 35.5 µM [rising, single point].
